Source: patent US20250000842A1, “Formulation of Resiniferatoxin” (Sorrento Therapeutics, Inc., priority 2017, published 2025)
The name of at least one read-out is uncertain.

Assay: Solubility comparison: recovery of RTX by HPLC after ambient and cold (5° C.) storage in various solutions
Assay type: physicochemical
Protocol: Independently of the formulations described in Example 1, a group of 12 surfactants was tested to compare the recovery of RTX based on HPLC analysis of samples following ambient and cold (5° C.) storage.

With `C=C(C)[C@]12C[C@@H](C)[C@@]34O[C@](Cc5ccccc5)(O[C@@H]1[C@@H]3C=C(COC(=O)Cc1ccc(O)c(OC)c1)C[C@]1(O)C(=O)C(C)=C[C@@H]41)O2` [RTX, resiniferatoxin] as the molecule, how does the “% Recovery T5° C.” value (95% Ethanol, 5° C. storage) read?
Its value is 99.8%.

And the “% Recovery TAmbient” value (95% Ethanol, ambient storage)?
The value was 98.4%.

And the “% Recovery T5° C.” value (Sodium 2-(diethylhexyl) sulfosuccinate 0.5% (w/v), 5° C.)?
Its value is 4.4%.

And the “% Recovery TAmbient” value (Sodium 2-(diethylhexyl) sulfosuccinate 0.5% (w/v), ambient)?
The value was 3.1%.

What about the “% Recovery TAmbient” value (Sodium dodecylsulfate 0.5% (w/v), ambient) of the same molecule?
The value was 24.0%.

And the “% Recovery T5° C.” value (Tocopheryl-polyethylene glycol succinate 0.1% (w/v), 5° C.)?
Its value is 0.0%.

And the “% Recovery TAmbient” value (Tocopheryl-polyethylene glycol succinate 0.1% (w/v), ambient)?
Its value is 0.0%.

And the “% Recovery T5° C.” value (Tween 20 0.1% (w/v), 5° C.)?
The value was 1.9%.

What about the “% Recovery TAmbient” value (Tween 20 0.1% (w/v), ambient) of the same molecule?
Its value is 1.8%.

What about the “% Recovery T5° C.” value (Tween 80 0.01% (w/v), 5° C.) of the same molecule?
The value was 0.0%.

What about the “% Recovery TAmbient” value (Tween 80 0.01% (w/v), ambient) of the same molecule?
Its value is 0.0%.

What about the “% Recovery T5° C.” value (Tween 80 0.05% (w/v), 5° C.) of the same molecule?
Its value is 0.6%.

What about the “% Recovery TAmbient” value (Tween 80 0.05% (w/v), ambient) of the same molecule?
Its value is 0.4%.

What about the “% Recovery T5° C.” value (Tween 80 0.1% (w/v), 5° C.) of the same molecule?
The value was 3.1%.

What about the “% Recovery TAmbient” value (Tween 80 0.1% (w/v), ambient) of the same molecule?
The value was 2.7%.

What about the “% Recovery T5° C.” value (Tween 80 0.5% (w/v), 5° C.) of the same molecule?
Its value is 20.2%.

And the “% Recovery TAmbient” value (Tween 80 0.5% (w/v), ambient)?
Its value is 19.0%.

And the “% Recovery T5° C.” value (Tween 80 1.0% (w/v), 5° C.)?
Its value is 13.4%.

And the “% Recovery TAmbient” value (Tween 80 1.0% (w/v), ambient)?
Its value is 12.6%.

What about the “% Recovery T5° C.” value (Water, 5° C. storage) of the same molecule?
The value was 0.0%.

And the “% Recovery TAmbient” value (Water, ambient storage)?
Its value is 0.0%.

And the “% Recovery T5° C.” value (n-Dodecyl-β-maltoside 0.5% (w/v), 5° C.)?
Its value is 21.5%.

What about the “% Recovery TAmbient” value (n-Dodecyl-β-maltoside 0.5% (w/v), ambient) of the same molecule?
Its value is 20.9%.
